According to EP0358033B1, “Radical polymerizable compositions and their use” (Henkel Kommanditgesellschaft auf Aktien, priority 1988, dated 1990):

Test: Ability of the acid component to allow initiation of polymerization by the activator system
Settings: acid added to the activator system (tert. amine / metal compound / acid)
In the case of Cl [Salzsäure], the “Eignung zur Auslösung von Polymerisationsreaktionen” value is reported as “stören ebenfalls die Fähigkeit zur Polymerisationsauslösung”. In the case of O=C(O)C(Cl)Cl [Dichloressigsäure], the “Eignung zur Auslösung von Polymerisationsreaktionen” value is reported as “sehr gut geeignet”. With CC(=O)O [Essigsäure] the “Eignung zur Auslösung von Polymerisationsreaktionen” value was “eignet sich hervorragend zur beschleunigten Reaktionsauslösung”. With O=C(O)C(Cl)(Cl)Cl [Trichloressigsäure] the “Eignung zur Auslösung von Polymerisationsreaktionen” value was “zerstört die Fähigkeit”.
